As a reminder, the pKi is −log10 of the Ki, conventionally taken in molar units.

The chains behind the UniProt entries cited, without tags or fusion partners. Residues count along the entry.
UniProt Q02790, 50-138 limits assumed: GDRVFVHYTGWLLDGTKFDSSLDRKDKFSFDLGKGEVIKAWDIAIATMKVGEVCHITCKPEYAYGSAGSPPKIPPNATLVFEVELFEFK
UniProt Q13451, 42-130 limits assumed: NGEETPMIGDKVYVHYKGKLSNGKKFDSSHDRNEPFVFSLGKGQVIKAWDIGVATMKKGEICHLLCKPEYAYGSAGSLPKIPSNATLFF

pKi: −log10 of the molar value. The match of structure and compound is tentative.

The values below come from patent US9914732B2, “Diazabicyclo[4.3.1]decane derivatives for treatment of psychiatric disorders” (Max-Planck-Gesellschaft zur Forderung der Wissenschaften …, priority 2014, dated 2018).

One experiment addresses FKBP52 (Homo sapiens, UniProt Q02790). Put plainly: Fluorescence polarization (FP) assay, binding to the FK506-binding domain of FKBP52. Conditions: read-out: FKBP52 Ki; FK506-binding domain of FKBP52 (FKBP52FK1), competition with fluorescent ligand 2b. The method, then:
(§1) In the present invention, in vitro fluorescence polarization assays with the compounds of the general formula (I) were performed to determine the binding affinities to FKBP51 and FKBP52 or to the isolated FK506-binding domains of FKBP51 and FKBP52 ([…]). Binding to the isolated FK506-binding domains is reliably indicative of binding to the full length proteins. The affinities for the isolated FK506-binding domains and for full-length FKBP51 or FKBP52 are the same for all compounds tested so far (Kozany et al, ChemBioChem 2009, 10, 1402-1410).
(§2) Example 11: Fluorescence Polarization (FP) Assays
(§3) In-vitro fluorescence polarization assays were performed to determine the binding affinities for FKBP51 and 52 according to a literature procedure (Kozany, C.; Marz, A.; Kress, C.; Hausch, F., Fluorescent probes to characterise FK506-binding proteins. Chembiochem 2009, 10, (8), 1402-10).
(§4) For fluorescence polarization assays the fluorescent ligand 2b was dissolved in HEPES (20 mm, pH 8), Triton-X100 (0.01%), at double the concentration required for the final sample. […]
(§5) The samples were transferred to black 384-well assay plates (No.: 3575; Corning Life Sciences). After incubation at room temperature for 30 min the fluorescence anisotropy was measured (GENios Pro, Tecan, Männedorf, Switzerland) by using an excitation filters of 485/20 nm and emission filters of 535/25 nm. […]
In general terms: Polarisation of emitted light reports the rotation of a fluorescent probe.

For a further experiment, the target named is FKBP51 (Homo sapiens, UniProt Q13451). In words: Fluorescence polarization (FP) assay, binding to the FK506-binding domain of FKBP51. Conditions: read-out: FKBP51 Ki; FK506-binding domain of FKBP51 (FKBP51FK1), competition with fluorescent ligand 2b. The method, then:
as §1, §2, §3, §4, §5

For `C#CCN1C[C@H](COC)[C@H]2CCC[C@@H](C1=O)N2S(=O)(=O)c1cccc(F)c1`, the pKi on FKBP52 and at FKBP51 was 6.30 to 7.00 each time.
